The nature of the experiment: qHTS Assay for Modulators of Lamin A Splicing. The conditions noted are these: HeLa LMNA splicing GFP/RFP minigene ratio, 48 h. In outline: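 S3 HeLa stable clones carrying a lamin A-EGFP splicing minigene plus DsRed2 were seeded at 600 cells/well in Opti-MEM with 2% FBS, pin-dosed and incubated 48 h at 37°C. Acumen cytometry (488 nm) gave the GFP/RFP total-intensity ratio.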
Background: qHTS replaces the single test concentration by a dilution series.

Where [1] appears, read: measured here: RFP viability control channel.
Setting [2] is: measured here: GFP splicing reporter channel.

Some of the results follow. Shown are side measurements of this screen, not its main read-out; they come without a call. Most of these compounds were active or inconclusive in the main read-out, so they are no random draw. Potencies come from curve fits of mixed quality, noted in brackets.

In general, AC50 refers to the concentration giving half of the maximal activity seen. As to `CSc1ccc(S(=O)(=O)N(C)Cc2ccccc2)cc1`, under setting [1], the AC50 was 1 µM [rising, full curve, poor fit].

For the molecule `CCOc1ccc(-n2cc(-c3ccccc3)c3c(N4CCOCC4)ncnc32)cc1`, the AC50 is, setting by setting: under setting [2], 11.2 µM [falling, partial curve]; under setting [1], 31.6 µM [falling, single point].

In the case of `COc1ccc(NC(=O)N(Cc2cc3cc(OC)c(OC)cc3[nH]c2=O)CC2CCCO2)cc1` (centres undefined), under setting [2], the AC50 is 3.98 µM [falling, full curve, poor fit].

As for `CN(C)C1=NCC(CSC(=N)N)S1` (centres undefined), the AC50 under setting [1] was 31.6 µM [rising, single point].

For `Cc1c(C(=O)NCc2cccc(Cl)c2)sc2ncnc(N(C)C3CCCCC3)c12`, under setting [1], the AC50 was 0.0158 µM [rising, full curve, poor fit].

`Cc1ccc(SCc2nc(-c3cccnc3)no2)cc1`: the AC50 runs as follows: under setting [2], 17.8 µM [falling, partial curve]; under setting [1], 20 µM [falling, partial curve].

For the molecule `O=C(N/N=C/c1cn(-c2cccs2)nc1-c1ccccc1)c1ccccc1O`, the AC50 runs as follows: under setting [2], 5.62 µM [rising, partial curve]; under setting [1], 10 µM [rising, partial curve].

`C=C(C(=O)c1ccccc1)C(c1ccccc1)C(C)C(=O)c1ccccc1` (centres undefined): the AC50 runs as follows: under setting [2], 35.5 µM [falling, single point]; under setting [1], 35.5 µM [falling, single point].

`O=C(Cn1c(=O)nc(-c2ccccc2)c2ccccc21)Nc1cccc(C(F)(F)F)c1`: the AC50 was 35.5 µM [falling, single point] under setting [2] and 35.5 µM [falling, partial curve, poor fit] under setting [1].

Regarding `Cc1ccc(N2CCN(/N=C/c3sccc3C)CC2)cc1`, under setting [1], the AC50 is 25.1 µM [rising, single point].

With `O=C(O)c1ccc(CNC(=S)Nc2ccccc2)cc1`, under setting [2], the AC50 is 0.00631 µM [rising, full curve, poor fit].

As to `COc1ccccc1Oc1ccc2c(c1)C(=O)N(c1ccc(Br)c3cccnc13)C2=O`, the AC50 is 10 µM [rising, partial curve] under setting [2] and 17.8 µM [rising, single point] under setting [1].

For the molecule `COc1ccc(NC(=O)c2oc3ccc(S(=O)(=O)N4CCCCC4)cc3c2C)cc1`, under setting [1], the AC50 is 0.141 µM [falling, full curve, poor fit].

As to `CCc1ccc(-n2nc(C)c3c(C)cc(=O)n(Cc4nc(-c5ccccc5)oc4C)c32)cc1`, the AC50 under setting [1] is 0.562 µM [rising, partial curve, poor fit].

Turning to `C=CC(=O)O`, the AC50 was 0.708 µM [falling, full curve, poor fit] under setting [2] and 35.5 µM [falling, single point] under setting [1].

In the case of `COc1ccc(-n2nnc3c(=O)n(Cc4cc(C)ccc4C)cnc32)cc1`, the AC50 under setting [2] was 0.0112 µM [falling, full curve, poor fit].

For `COc1ccccc1N1CCN(C(=O)c2cc(-c3ccc4c(c3)OCO4)on2)CC1`, the AC50 is, setting by setting: under setting [2], 5.01 µM [rising, full curve]; under setting [1], 5.01 µM [rising, partial curve, poor fit].

For `CCN1CCN(CC(=O)Nc2c(C(=O)OC)[nH]c3cccc(Cl)c23)CC1`, the AC50 under setting [1] is 4.47 µM [falling, partial curve].

Regarding `CN(Cc1ccccc1)S(=O)(=O)c1nnc(NC(=O)c2cccc(Cl)c2)s1`, the AC50 is, setting by setting: under setting [2], 35.5 µM [falling, single point]; under setting [1], 35.5 µM [falling, partial curve, poor fit].

With `CCN(CC)C(=O)CCC(=O)Nc1ccc(C(=O)OC)cc1`, the AC50 under setting [1] is 3.55 µM [rising, single point].

As for `O=C(/C=C/c1ccccc1)NC(=S)NNC(=O)c1cccnc1`, under setting [1], the AC50 was 35.5 µM [falling, partial curve].

For the molecule `Cc1nc(N2CCN(C(=O)c3ccco3)CC2)c2c3c(sc2n1)CC(C)CC3` (centres undefined), the AC50 under setting [1] is 5.01 µM [falling, partial curve, poor fit].

For `Cc1cccc(NC(=O)CSc2nccn2Cc2ccc(F)cc2)c1C`, the AC50 under setting [2] was 0.158 µM [rising, full curve, poor fit].

For `Cc1c(/C=N\NC(=O)C2COc3ccccc3O2)c2ccccc2n1C` (centres undefined), the AC50 under setting [1] was 0.794 µM [rising, full curve, poor fit].

Consider `Cc1cc(-c2nnc(CCC(=O)N3CCN(Cc4cccc(F)c4)CC3)o2)c(C)o1`, for which the AC50 under setting [1] was 35.5 µM [falling, partial curve, poor fit].

`COc1ccc(S(=O)(=O)N2CCOC2CNC(=O)C(=O)NCCCn2ccnc2)cc1OC` (centres undefined): the AC50 under setting [2] is 0.251 µM [falling, full curve, poor fit] and the AC50 under setting [1] is 0.316 µM [falling, partial curve].

With `CCOc1ccccc1CNC(=O)c1cc2oc3ccccc3c2n1C`, the AC50 under setting [1] is 10 µM [rising, partial curve].

With `CCC(NC(=O)c1ccccc1O)c1ccccc1` (centres undefined), the AC50 reads like this: under setting [2], 22.4 µM [rising, single point]; under setting [1], 22.4 µM [rising, single point].

In the case of `N.N.O=C(O)C1(C(=O)O)CCC1.[Pt]`, the concentration at half-maximal activity (AC50) under setting [2] was 0.00562 µM [falling, full curve, poor fit] and the AC50 under setting [1] was 35.5 µM [falling, single point].

With `COc1ccccc1N1CCN(C(=O)c2cccc3c(=O)c(C)c(-c4ccccc4)oc23)CC1`, the AC50 under setting [1] is 0.2 µM [rising, full curve, poor fit].

Take `CCOC(=O)N(C)c1ccc(C(O)(C(F)(F)F)C(F)(F)F)cc1`: the AC50 reads like this: under setting [2], 10 µM [rising, partial curve]; under setting [1], 4.47 µM [rising, partial curve, poor fit].

`CCOC(=O)/C=C/C(=O)Nc1ccc(S(=O)(=O)Nc2c(C)cc(C)cc2C)cc1`: under setting [1], the AC50 was 35.5 µM [rising, single point].

As to `Cc1ccccc1OCc1ccc(-c2nc(C#N)c(NCc3cccnc3)o2)o1`, the AC50 under setting [1] was 12.6 µM [rising, single point].

For `CC1=C(c2ccc(C)c(C)c2)S(=O)(=O)N=C1N1CCC(C(=O)N2CCC(C)CC2)CC1`, the AC50 reads like this: under setting [2], 0.112 µM [rising, full curve, poor fit]; under setting [1], 0.01 µM [rising, full curve].

With `CC1CCCCN1C(=O)c1cc2nc(-c3ccccc3)cc(-c3ccccc3)n2n1` (centres undefined), the AC50 under setting [1] was 22.4 µM [rising, single point].

In the case of `CCOC(=O)c1c(C)[nH]c(C(=O)CSc2nc(C)cc(C)n2)c1C`, the AC50 is 31.6 µM [rising, single point] under setting [2] and 31.6 µM [rising, single point] under setting [1].

Regarding `Cc1cc(-c2csc(NC(=O)c3ccc(C#N)cc3)n2)c(C)n1Cc1ccccc1`, the AC50 reads like this: under setting [2], 14.1 µM [rising, single point]; under setting [1], 12.6 µM [rising, partial curve].

With `CN(C)C(=O)c1ccc(COc2ccccc2Br)o1`, the AC50 under setting [1] is 35.5 µM [rising, single point].

For the molecule `O=C(/C=C/c1ccc(F)cc1)c1ccccc1Br`, the AC50 is 20 µM [falling, single point] under setting [2] and 35.5 µM [falling, single point] under setting [1].

Take `Cc1cc(NS(=O)(=O)c2ccc(NC(=O)c3cc4ccccc4o3)cc2)no1`: under setting [1], the AC50 is 0.126 µM [falling, full curve, poor fit].

With `Cc1cccc(NC(=O)C2c3ccccc3Oc3ccccc32)n1`, the AC50 under setting [2] was 25.1 µM [falling, single point].

For `CC(C)(C=O)C1=CC(=O)c2ccccc2C1=O`, under setting [1], the AC50 is 17.8 µM [rising, single point].

For the molecule `CNc1ncnc2c1cnn2-c1ccc(C)c(C)c1`, the AC50 is, setting by setting: under setting [2], 3.98 µM [rising, full curve, poor fit]; under setting [1], 0.355 µM [rising, full curve, poor fit].

Consider `C(=N\n1cnnc1)/c1ccc(-c2ccccc2)cc1`, for which the AC50 is 12.6 µM [falling, partial curve] under setting [2] and 11.2 µM [falling, partial curve] under setting [1].

Consider `Cc1sc2ncnc(NCC(c3ccco3)N(C)C)c2c1C` (centres undefined), for which the AC50 runs as follows: under setting [2], 11.2 µM [rising, partial curve, poor fit]; under setting [1], 20 µM [rising, single point].

For the molecule `CCn1c(C)c(P(c2ccccc2)c2ccccc2)[n+]2ccccc12`, the AC50 under setting [1] is 2.24 µM [rising, full curve, poor fit].

Consider `C=CCNCCCCOc1ccc(OCc2ccccc2)cc1`, for which the AC50 under setting [2] is 15.8 µM [falling, single point].

For `COc1ccc(CCNc2nc(N3CCCCC3)nc(N3CCCCC3)n2)cc1OC`, the AC50 is 17.8 µM [rising, single point] under setting [2] and 17.8 µM [rising, partial curve] under setting [1].

For `Fc1ccc([C@@H]2CCNC[C@H]2COc2ccc3c(c2)OCO3)cc1`, the AC50 is 14.1 µM [falling, partial curve, poor fit] under setting [2] and 22.4 µM [falling, partial curve] under setting [1].

For `CCOc1ccc(-c2nc(N)ncc2-c2ccc(OC)cc2)c(O)c1`, the AC50 runs as follows: under setting [2], 7.08 µM [rising, full curve, poor fit]; under setting [1], 10 µM [rising, partial curve].

As to `CO/N=C/C(=N\Nc1ccc(OC)cc1)C(=O)c1ccc(F)cc1`, the AC50 was 12.6 µM [falling, partial curve] under setting [2] and 22.4 µM [falling, partial curve, poor fit] under setting [1].

On to `CCOC(=O)c1c(C)[nH]c(C)c1C(=O)COC(=O)c1cc2ccccc2cc1OC`, for which the AC50 under setting [1] was 11.2 µM [rising, single point].

Consider `CCNS(=O)(=O)c1ccc(CCC(N)=O)cc1`, for which the AC50 under setting [2] was 0.316 µM [rising, partial curve].

`C=CCOC(=O)C1=C(C)NC(SCC)=C(C#N)C1c1ccc(Cl)cc1` (centres undefined): the AC50 runs as follows: under setting [2], 10 µM [falling, partial curve]; under setting [1], 35.5 µM [falling, single point].

(Values after PubChem BioAssay AID1487 (National Center for Advancing Translational Sciences (NCATS), 2009).)
